Values of other authors in US8703713B2, “Combination therapy for pancreatic cancer using an antigenic peptide and chemotherapeutic agent” (Onco Therapy Science, Inc., priority 2007, dated 2014).
At least one peptide structure holds a part that was inferred or is arguable (an end, a ring closure or a residue). Peptide text beside a SMILES is read from it.

Settings: VEGFR2 peptide alone, personal communication; cited from earlier work

CC[C@H](C)[C@H](NC(=O)[C@H](CCCNC(=N)N)NC(=O)[C@H](CC(N)=O)NC(=O)CNC(=O)[C@H](CC(=O)O)NC(=O)[C@@H]1CCCN1C(=O)[C@@H](NC(=O)[C@H](Cc1ccccc1)NC(=O)[C@@H](N)CCCNC(=N)N)C(C)C)C(=O)O [VEGFR2-169, RFVPDGNRI] (H-RFVPDGNRI-OH)
DTH reaction: hardly observed
